Here are results for 1 substance from article PMC10805470.

Chains of the proteins cited; added tags and fusions are not shown.
UniProt Q8R4B8: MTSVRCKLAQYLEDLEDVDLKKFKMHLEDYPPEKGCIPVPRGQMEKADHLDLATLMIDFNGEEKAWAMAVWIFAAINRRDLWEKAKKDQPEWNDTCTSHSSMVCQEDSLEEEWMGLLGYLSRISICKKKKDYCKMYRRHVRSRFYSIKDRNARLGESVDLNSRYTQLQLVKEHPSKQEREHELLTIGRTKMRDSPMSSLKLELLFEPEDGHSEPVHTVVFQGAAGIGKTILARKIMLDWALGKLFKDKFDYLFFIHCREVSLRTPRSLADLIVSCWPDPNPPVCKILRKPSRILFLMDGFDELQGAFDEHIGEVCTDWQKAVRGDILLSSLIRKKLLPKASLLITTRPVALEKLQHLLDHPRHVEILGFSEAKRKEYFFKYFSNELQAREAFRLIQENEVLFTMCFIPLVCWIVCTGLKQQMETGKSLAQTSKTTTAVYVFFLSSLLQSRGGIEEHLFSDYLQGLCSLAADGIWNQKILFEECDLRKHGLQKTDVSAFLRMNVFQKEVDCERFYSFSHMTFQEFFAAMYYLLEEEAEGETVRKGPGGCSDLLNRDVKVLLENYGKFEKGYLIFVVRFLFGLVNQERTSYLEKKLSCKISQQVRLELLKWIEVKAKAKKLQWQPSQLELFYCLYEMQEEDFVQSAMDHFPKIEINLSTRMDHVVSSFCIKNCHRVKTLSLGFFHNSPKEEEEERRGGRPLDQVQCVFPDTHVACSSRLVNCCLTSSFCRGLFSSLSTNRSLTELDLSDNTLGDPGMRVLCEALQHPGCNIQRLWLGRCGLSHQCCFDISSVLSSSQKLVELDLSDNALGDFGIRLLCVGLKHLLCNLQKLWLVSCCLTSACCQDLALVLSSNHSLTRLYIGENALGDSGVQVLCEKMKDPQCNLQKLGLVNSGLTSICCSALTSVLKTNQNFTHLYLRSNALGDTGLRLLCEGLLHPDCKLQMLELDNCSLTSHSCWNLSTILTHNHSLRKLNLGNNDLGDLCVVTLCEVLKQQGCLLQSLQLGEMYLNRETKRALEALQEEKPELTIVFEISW
UniProt Q60613: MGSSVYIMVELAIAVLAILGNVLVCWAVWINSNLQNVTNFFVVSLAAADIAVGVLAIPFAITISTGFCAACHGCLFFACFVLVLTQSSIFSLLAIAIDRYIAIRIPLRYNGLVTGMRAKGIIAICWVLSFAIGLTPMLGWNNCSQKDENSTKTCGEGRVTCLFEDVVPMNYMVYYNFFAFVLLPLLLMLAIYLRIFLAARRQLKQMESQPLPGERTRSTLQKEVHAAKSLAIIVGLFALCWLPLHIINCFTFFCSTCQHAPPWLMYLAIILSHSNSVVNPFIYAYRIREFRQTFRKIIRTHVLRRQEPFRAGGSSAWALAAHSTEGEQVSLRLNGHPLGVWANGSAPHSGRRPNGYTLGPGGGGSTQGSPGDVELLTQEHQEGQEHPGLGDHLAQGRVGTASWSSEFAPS

The assay addresses nucleotide-binding oligomerization domain, leucine-rich repeat, and pyrin domain-containing protein 3 (mouse (endogenous in primary microglia)) (UniProt Q8R4B8). The experiment in a line: co-IP; lysates of primary microglia (IP lysis buffer, protease inhibitors); anti-NLRP3 or anti-A2AR overnight at 4°C, Protein A/G magnetic beads, western blot; normal IgG as control; cells untreated, LPS (1 μg/mL, 3 h) + ATP (1 mM, 20 min), or pretreated with the A2AR agonist CGS21680 (100 nM, 30 min) before LPS + ATP.

No constants are given. Whether binding was seen depends on the method and setting. In cells and extracts the contact can be indirect. Some binding calls cover weakened binding; strength is not graded here.

As for “Adenosine 2A receptor (from UniProt Q60613 1-410)”, the binding entry was “binds”.
